Experimental data taken from patent publication US11337449B2, “Compositions and their use” (NESTEC S.A., priority 2015, dated 2022).
At least one compound was matched to its structure with a doubt left.

System: brain myelination (myelin water fraction)
Assay: Cross-sectional correlation of infant formula nutrient content with brain myelination (myelin water fraction, mcDESPOT MRI)
Type: in vivo, human
Settings: children up to 5 years fed infant formulas
Procedure: MRI (Magnetic Resonance Imaging): MRI brain scans of infants and children between 0 and 5 years were acquired using a white matter imaging technique. This technique provides a quantitative measure, the Myelin Water Fraction (MWF), which is a surrogate marker of myelin content in the brain. When mapped as a function of time across early childhood, myelination trajectories can be generated.
Infant formula composition: six infant formulas fed to infants participating in a study were analyzed for their composition/level of myelin-relevant nutrients.
Each infant was scanned using the mcDESPOT (multicomponent Driven Equilibrium Single Pulse Observation of T1 and T2) white matter imaging technique Deoni et al. (Magn. Reson. Med. 2008, 60:1372-1387), which provides a quantitative measure of the myelin water fraction (MWF)—a measure of myelin content—at each point throughout the brain. All infants were scanned during natural (i.e. non-sedated) sleep using acoustically-muffled mcDESPOT imaging protocols. […]
Each child's map was then non-linearly aligned to a study specific template. […] Mean values for each region were then determined for each child and used for subsequent developmental analysis and trajectory modeling. […]
Spearman rank correlations were then calculated between the nutrient content and myelin content value (adjusted for child age) at each image voxel, or point within the brain. […]

SMILES: CC/C=C\C/C=C\C/C=C\C/C=C\C/C=C\C/C=C\CCC(=O)O [DHA, docosahexaenoic acid]
- association of nutrient with myelination (myelin water fraction) over time in the brain: an association with myelination (myelin water fraction) was observed over time in the brain
